# Experimental data from paper PMC10113545, “OsWRKY76 positively regulates drought stress via OsbHLH148-mediated jasmonate signaling in rice”.
# B1: AD-OsJAZ12 (protein, UniProt Q7XEZ1 1-171)
# chain: MAAAGSSSRFAVTCGLLSQYMRERQQPQPPVTVLEAVAEEEEEEDARTMQLFPPRAAAADGVATPSAGTAPLTIFYDGRMVVVDDVPVEKAAELMRLAGSACSPPQPAHAAALPEMPIARKASLQRFLQKRKHRITTTSEPYKKAAVASPAPEKSFAVAPVKDEPATWLGL
# B2: OsWRKY76 driven by the Met25 promoter (third protein of BD-OsbHLH148-OsWRKY76) (protein, UniProt Q6EPZ2 1-327)
# chain: MDAAWRGGVGCSPVCLDLCVGLSPVREPSAARHELLDRPAGCRGGGDSKSMTNDEAKIVEAKVTQMSEENRRLTEVIARLYGGQIPRLGLDGSASPPRPVSPLSGKKRSRESMETANSCDANSNRHQGGDADHAESFAADDGTCRRIKVSRVCRRIDPSDTSLVVKDGYQWRKYGQKVTRDNPSPRAYFRCAFAPSCPVKKKVQRSAEDSSLLVATYEGEHNHPHPSPRAGELPAAAGGAGGSLPCSISINSSGPTITLDLTKNGGAVQVVEAAHPPPPPDLKEVCREVASPEFRTALVEQMASALTSDPKFTGALAAAILQKLPEF
# Tests used:
# [1] = target: T1, BD-OsWRKY76 (rice (Oryza sativa)) (UniProt Q6EPZ2); experiment: two-hybrid; yeast strain Y2HGold; bait in pbridge (BD), prey in pGADT7 (AD); growth on SD/-Trp-Leu and SD/-Trp-Leu-His dropout plates
# T1 sequence: B2 chain
# [2] = target: BD-OsbHLH148 (rice (Oryza sativa)); experiment: two-hybrid; yeast three-hybrid assay, strain Y190; prey AD-JAZ12, bait BD-b148 or BD-b148-W76 (OsWRKY76 from the Met25 promoter, expressed without methionine); SD/-Trp-Leu-Met plates; beta-galactosidase activity
Molecule,binding [1],binding [2]
AD-OsJAZ11 (rice (Oryza sativa)),binds,–
B1,–,binds
B2,–,binds

# Results are given in words; binding and its absence hold for the method and conditions named. Binding can be weak; no strength is given. Where a sequence is shown, tags or fusion partners need not be part of it.
